Experimental data from patent US20160090605A1 (ACADEMIA SINICA, published 2016).
No constants are given. Whether binding was seen depends on the method and setting. In cells and extracts the contact can be indirect. These calls come from enrichment with a bait or labelling near it, and not all partners need be listed. Tags and fused reporters may be left off the sequences shown.

T1: YFP-AFL1 (Arabidopsis) (UniProt Q9LHD9)
T1 sequence: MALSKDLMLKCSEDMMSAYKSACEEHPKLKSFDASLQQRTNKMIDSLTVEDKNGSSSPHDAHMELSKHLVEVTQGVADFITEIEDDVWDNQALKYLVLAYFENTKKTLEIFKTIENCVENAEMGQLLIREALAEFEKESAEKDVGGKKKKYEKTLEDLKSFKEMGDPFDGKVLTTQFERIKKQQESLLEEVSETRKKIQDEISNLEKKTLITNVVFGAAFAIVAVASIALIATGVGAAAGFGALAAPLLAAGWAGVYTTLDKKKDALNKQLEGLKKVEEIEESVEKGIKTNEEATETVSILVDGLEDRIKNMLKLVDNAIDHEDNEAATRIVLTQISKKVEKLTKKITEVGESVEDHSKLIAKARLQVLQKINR

B1: At14a-like1 (AFL1), full length (other)
chain: T1 sequence
notes: Full-length AFL1; In mbSUS it was a split-ubiquitin fusion expressed in yeast; In BiFC it was a fusion to a YFP half (YFPN or YFPC, the latter MYC-tagged); This entry also stands for native AFL1 in seedling extracts (47 kDa band; co-purified with YFP-AFL1); also called AT3G28270; Full Length AFL1
B2: Protein Disulfide Isomerase5 (PDI5) (enzyme)
chain: EETETKEFVLTLDHTNFTDTINKHDFIVVEFYAPWCGHCKQLAPEYEKAASALSSNVPPVVLAKIDASEETNREFATQYEVQGFPTIKIFRNGGKAVQEYNGPREAEGIVTYLKKQSGPASAEIKSADDASEVVSDKKVVVVGIFPKLSGSEFDSFMAIAEKLRSELDFAHTSDAKLLPRGESSVTGPVVRLFKPFDEQFVDSKDFDGEALEKFVKESSIPLITVFDKDPNNHPYVIKFFESTNTKAMLFINFTGEGAESLKSKYREVATSNKGQGLSFLLGDAENSQGAFQYFGLEESQVPLIIIQTADDKKYLKTNVEVDQIESWVKDFKDGKIAPHKKSQPIPAENNEPVKVVVSDSLDDIVLNSGKNVLLEFYAPWCGHCQKLAPILDEVAVSYQSDSSVVIAKLDATANDFPKDTFDVKGFPTIYFKSASGNVVVYEGDRQRESLYLFIRFLYVHSSEQ
B3: ER-body protein NAI2 (protein)
chain: QDEGTGSLSTLDLIEHEYQTSVNSLQGNEAVDQTETSGQKNSTVSDNNTISLSLSEEPALETLKESVDTSAELGAVTDEVDKPSSMLDHIELEFEAHINELKEAGSDGINKVEESKDDEEAARRHKMLEAIEREFEAAHAGFEQLKTDDSAQGLDDEQSAKRQSMLDEIERDFEAATKGLEQLKADDLTGINDEEHAAKRQKMLEEIEREFEEATKGLEELRHSTSSTDDEAQSAKRQNMLDEIEREFEAATSGLKELKINAHTVKDDVDDKEQDAKRQSMLDAIEREFEAVTESFKQLEDIADNKAEGDDESAKRQSMLDEIEREFEAATNSLKQLNLDDFSEGDDSAESARRNSMLEAIEREFEAATKGLEELKANDSTGDKDDDEHVARRKIMLEAIEREFEAATKGLEELKNESEQAENKRNSMLEAFEREFEAATNAKANGENSAKNPSTISTTVQKSSGGYNAGLEGLLKPADGVCGCFNKDKDGLQADTDSSINIAEILAEESKLQGSGTSRLTTSLNNLVDTHRKETSSKVGSVLGSSSSVTSTTSESAATSESIESLKQTLRKLRGLSARDLVNHPNFDAIIAAGTRYEVLSSASIGYISLLAKYKTVIKEGLEASQRVQIAQTRAKLLKETAMEKQRTVDSVFAAAKTTAQRGDALHIRIVAIKKLLAKLEAEKVDVDSKFTSLTTSLSELLKEASQAYEEYHEAVHKAKDEQAAEEFAVETTKRAEHIWVEFLSSLN

How the values were obtained:
[1] = target: T1, YFP-AFL1 (Arabidopsis); assay: IP/MS of YFP-AFL1 (GFP-trap, mass spectrometry)
[2] = target: T1, YFP-AFL1 (Arabidopsis); assay: immunoprecipitation of YFP-AFL1, mass spectrometry

Binder	binding [1]	binding [2]
B1	binds	–
B2	binds	binds
B3	binds	binds
